Assay: Spectral properties of light control elements: transmittance T (0 V) at λmax with no voltage applied
Conditions: cured light control element, composition at maximum dissolution amount, 20 μm spacer

With `CCCCC(CC)C(=O)Oc1ccc(Sc2cccc3c2C(=O)c2cccc(Sc4ccc(OC(=O)C(CC)CCCC)cc4)c2C3=O)cc1` (centres unmarked) [No.3] the “T (0 V)” value was 8.8.
For `CC(CC(=O)Oc1ccc(Sc2cccc3c2C(=O)c2cccc(Sc4ccc(OC(=O)CC(C)CC(C)(C)C)cc4)c2C3=O)cc1)CC(C)(C)C` (centres unmarked) [Formula(D)], the “T (0 V)” value was 44.1.
For `CCCCCCCCC(CCCCCC)C(=O)Oc1ccc(Sc2cccc3c2C(=O)c2cccc(Sc4ccc(OC(=O)C(CCCCCC)CCCCCCCC)cc4)c2C3=O)cc1` (centres unmarked) [No.2], the “T (0 V)” value was 12.8.
For `CCCCCC(C)CCC(=O)Oc1ccc(Sc2cccc3c2C(=O)c2cccc(Sc4ccc(OC(=O)CCC(C)CCCCC)cc4)c2C3=O)cc1` (centres unmarked) [Formula(E)], the “T (0 V)” value was 43.8.
For `CC(C)(C)c1ccc(Sc2cccc3c2C(=O)c2cccc(Sc4ccc5ccccc5c4)c2C3=O)cc1` [Formula(A)], the “T (0 V)” value was 54.0.
